{"source": "patent US20170189504A1", "about": "“NOVEL PEPTIDES AND COMBINATION OF PEPTIDES FOR USE IN IMMUNOTHERAPY AGAINST VARIOUS CANCERS” (immatics biotechnologies GmbH, priority 2015, published 2017)", "key": {"[1]": {"tested_on": "HLA-A*24", "assay": "Identification and relative LC-MS quantitation of HLA-A*24-presented tumor-associated peptides on tissue samples (presentation profiles, Tables 14A, 14B, 16, FIG. 1)", "set-up": "species or system human; key to Presentation score GC / Presentation score NSCLC / Presentation score PCA / Presentation score GB / Presentation score HCC / Presentation score RCC: specifically presented on tumors (++++); very highly over-presented on tumors compared to a panel of normal tissues (+++); highly over-presented on tumors compared to a panel of normal tissues (++); over-presented on tumors compared to a panel of normal tissues (+)", "conditions": "for Presentation score NSCLC: non-small cell lung cancer (N = 91) vs panel of normal tissues (N = 70); for Peptide Presentation on cancer entities: Table 14A, HLA-A*24-binding tumor-associated peptides, cancer entities on which the peptide was found presented"}, "[2]": {"tested_on": "source genes (mRNA)", "assay": "Gene and exon expression of source genes, TCGA tumor samples compared with normal tissue samples (Lonsdale, 2013) (Table 17)", "set-up": "species or system human", "conditions": "tumor expression more than 2-fold above highest 75% percentile of high and medium risk normal tissues; for Target coverage: over-expression category of source gene, BLCA: Bladder urothelial carcinoma (N = 408); for Target coverage: over-expression category of source gene, BRCA: Breast cancer (N = 1104); for Target coverage: over-expression category of source gene, CHOL: Cholangiocarcinoma (N = 36); for Target coverage: over-expression category of source gene, READ: Colon and rectal adenocarcinoma (N = 167); for Target coverage: over-expression category of source gene, COAD: Colon and rectal adenocarcinoma (N = 462); for Target coverage: over-expression category of source gene, ESCA: Esophageal cancer (N = 185); for Target coverage: over-expression category of source gene, LUAD: Lung adenocarcinoma (N = 517); for Target coverage: over-expression category of source gene, LUSC: Lung squamous cell carcinoma (N = 503); for Target coverage: over-expression category of source gene, OV: Ovarian serous cystadenocarcinoma (N = 309); for Target coverage: over-expression category of source gene, PAAD: Pancreatic ductal adenocarcinoma (N = 179); for Target coverage: over-expression category of source gene, KIRP: Papillary kidney carcinoma (N = 291); for Target coverage: over-expression category of source gene, SKCM: Skin cutaneous melanoma (N = 473); for Target coverage: over-expression category of source gene, STAD: Stomach adenocarcinoma (N = 415); for Target coverage: over-expression category of source gene, UCEC: Uterine corpus endometrial carcinoma (N = 546)"}, "[3]": {"tested_on": "source genes (mRNA)", "assay": "Expression profiling of source genes by in-house RNASeq of tumor and normal tissues (Table 18, FIG. 2)", "set-up": "species or system human; key: very highly over-expressed in tumors compared to a panel of normal tissues (+++); highly over-expressed in tumors compared to a panel of normal tissues (++); over-expressed in tumors compared to a panel of normal tissues (+)", "conditions": "source gene of peptide; for Expression score OSCAR: esophageal cancer incl. gastric-esophageal junction (N = 11) vs panel of normal tissues; for Expression score OC: ovarian cancer (N = 12) vs panel of normal tissues; for Expression score SCLC: small cell lung cancer (N = 10) vs panel of normal tissues; for Expression score UBC: urinary bladder cancer (N = 10) vs panel of normal tissues"}, "[4]": {"conditions": "FIG. 1, A*24 positive samples, only samples with presentation shown"}}, "note": "For part of these data: For expression read-outs the peptide stands for its source gene, whose mRNA was measured; the gene is not named for every peptide.", "data": [{"substance": "276: peptide found in TYMS (gene looked up) (VYGFQWRHF; listed as Homo sapiens) [compound 276]", "values": [{"measurement": "Presentation score NSCLC", "setting": "[1]; HLA-A*24 peptides", "result": "++++"}, {"measurement": "Peptide Presentation on cancer entities", "setting": "[1]", "result": "NSCLC"}, {"measurement": "Target coverage: over-expression category of source gene, LAML", "setting": "[2]; Acute Myeloid Leukemia (N = 173)", "result": "A (>=50% of tumors above the cutoff)"}, {"measurement": "Target coverage: over-expression category of source gene, BLCA", "setting": "[2]", "result": "A (>=50% of tumors above the cutoff)"}, {"measurement": "Target coverage: over-expression category of source gene, BRCA", "setting": "[2]", "result": "B (>= 20% of tumors above the cutoff, but <50%)"}, {"measurement": "Target coverage: over-expression category of source gene, CHOL", "setting": "[2]", "result": "B (>= 20% of tumors above the cutoff, but <50%)"}, {"measurement": "Target coverage: over-expression category of source gene, KIRC", "setting": "[2]; Clear cell kidney carcinoma (N = 534)", "result": "A (>=50% of tumors above the cutoff)"}, {"measurement": "Target coverage: over-expression category of source gene, READ", "setting": "[2]", "result": "B (>= 20% of tumors above the cutoff, but <50%)"}, {"measurement": "Target coverage: over-expression category of source gene, COAD", "setting": "[2]", "result": "A (>=50% of tumors above the cutoff)"}, {"measurement": "Target coverage: over-expression category of source gene, ESCA", "setting": "[2]", "result": "A (>=50% of tumors above the cutoff)"}, {"measurement": "Target coverage: over-expression category of source gene, GBM", "setting": "[2]; Glioblastoma multiforme (N = 169)", "result": "A (>=50% of tumors above the cutoff)"}, {"measurement": "Target coverage: over-expression category of source gene, LIHC", "setting": "[2]; Liver hepatocellular carcinoma (N = 374)", "result": "B (>= 20% of tumors above the cutoff, but <50%)"}, {"measurement": "Target coverage: over-expression category of source gene, LGG", "setting": "[2]; Lower grade glioma (N = 534)", "result": "C (>=5% of tumors above the cutoff, but <20%)"}, {"measurement": "Target coverage: over-expression category of source gene, LUAD", "setting": "[2]", "result": "B (>= 20% of tumors above the cutoff, but <50%)"}, {"measurement": "Target coverage: over-expression category of source gene, LUSC", "setting": "[2]", "result": "A (>=50% of tumors above the cutoff)"}, {"measurement": "Target coverage: over-expression category of source gene, DLBC", "setting": "[2]; Lymphoid neoplasm diffuse large B-cell lymphoma (N = 48)", "result": "A (>=50% of tumors above the cutoff)"}, {"measurement": "Target coverage: over-expression category of source gene, OV", "setting": "[2]", "result": "A (>=50% of tumors above the cutoff)"}, {"measurement": "Target coverage: over-expression category of source gene, PAAD", "setting": "[2]", "result": "C (>=5% of tumors above the cutoff, but <20%)"}, {"measurement": "Target coverage: over-expression category of source gene, KIRP", "setting": "[2]", "result": "B (>= 20% of tumors above the cutoff, but <50%)"}, {"measurement": "Target coverage: over-expression category of source gene, SKCM", "setting": "[2]", "result": "A (>=50% of tumors above the cutoff)"}, {"measurement": "Target coverage: over-expression category of source gene, STAD", "setting": "[2]", "result": "A (>=50% of tumors above the cutoff)"}, {"measurement": "Target coverage: over-expression category of source gene, UCEC", "setting": "[2]", "result": "B (>= 20% of tumors above the cutoff, but <50%)"}, {"measurement": "Expression score AML", "setting": "[3]; acute myeloid leukemia (N = 11) vs panel of normal tissues", "result": "+"}, {"measurement": "Expression score OSCAR", "setting": "[3]", "result": "+"}, {"measurement": "Expression score GB", "setting": "[3]; glioblastoma (N = 24) vs panel of normal tissues", "result": "+"}, {"measurement": "Expression score NHL", "setting": "[3]; non-Hodgkin lymphoma (N = 10) vs panel of normal tissues", "result": "++"}, {"measurement": "Expression score OC", "setting": "[3]", "result": "+"}, {"measurement": "Expression score SCLC", "setting": "[3]", "result": "++"}, {"measurement": "Expression score UBC", "setting": "[3]", "result": "+"}]}, {"substance": "277: peptide found in PTK7 (gene looked up) (VYQGHTALL; listed as Homo sapiens) [compound 277]", "values": [{"measurement": "number of cell lines where the peptide was found to be presented", "setting": "[1]; FIG. 1, A*24 positive samples, cell lines include benign prostate hyperplasias", "result": 2}, {"measurement": "number of cancer tissues where the peptide was found to be presented", "setting": "[1]; [4]", "result": 64}, {"measurement": "number of normal tissues where the peptide was found to be presented", "setting": "[1]; [4]", "result": 4}, {"measurement": "Presentation score GC", "setting": "[1]; HLA-A*24 peptides, gastric cancer (N = 44) vs panel of normal tissues (N = 70)", "result": "++"}, {"measurement": "Presentation score NSCLC", "setting": "[1]; HLA-A*24 peptides", "result": "+++"}, {"measurement": "Presentation score PCA", "setting": "[1]; HLA-A*24 peptides, prostate cancer (N = 40) vs panel of normal tissues (N = 70)", "result": "+"}, {"measurement": "Peptide Presentation on cancer entities", "setting": "[1]", "result": "GB, GC, NSCLC, PCA"}, {"measurement": "Target coverage: over-expression category of source gene, BLCA", "setting": "[2]", "result": "B (>= 20% of tumors above the cutoff, but <50%)"}, {"measurement": "Target coverage: over-expression category of source gene, BRCA", "setting": "[2]", "result": "B (>= 20% of tumors above the cutoff, but <50%)"}, {"measurement": "Target coverage: over-expression category of source gene, CHOL", "setting": "[2]", "result": "C (>=5% of tumors above the cutoff, but <20%)"}, {"measurement": "Target coverage: over-expression category of source gene, READ", "setting": "[2]", "result": "B (>= 20% of tumors above the cutoff, but <50%)"}, {"measurement": "Target coverage: over-expression category of source gene, COAD", "setting": "[2]", "result": "B (>= 20% of tumors above the cutoff, but <50%)"}, {"measurement": "Target coverage: over-expression category of source gene, ESCA", "setting": "[2]", "result": "B (>= 20% of tumors above the cutoff, but <50%)"}, {"measurement": "Target coverage: over-expression category of source gene, LUAD", "setting": "[2]", "result": "A (>=50% of tumors above the cutoff)"}, {"measurement": "Target coverage: over-expression category of source gene, LUSC", "setting": "[2]", "result": "A (>=50% of tumors above the cutoff)"}, {"measurement": "Target coverage: over-expression category of source gene, OV", "setting": "[2]", "result": "A (>=50% of tumors above the cutoff)"}, {"measurement": "Target coverage: over-expression category of source gene, PAAD", "setting": "[2]", "result": "B (>= 20% of tumors above the cutoff, but <50%)"}, {"measurement": "Target coverage: over-expression category of source gene, KIRP", "setting": "[2]", "result": "C (>=5% of tumors above the cutoff, but <20%)"}, {"measurement": "Target coverage: over-expression category of source gene, PRAD", "setting": "[2]; Prostate adenocarcinoma (N = 498)", "result": "B (>= 20% of tumors above the cutoff, but <50%)"}, {"measurement": "Target coverage: over-expression category of source gene, SKCM", "setting": "[2]", "result": "B (>= 20% of tumors above the cutoff, but <50%)"}, {"measurement": "Target coverage: over-expression category of source gene, STAD", "setting": "[2]", "result": "C (>=5% of tumors above the cutoff, but <20%)"}, {"measurement": "Target coverage: over-expression category of source gene, UCEC", "setting": "[2]", "result": "A (>=50% of tumors above the cutoff)"}, {"measurement": "Expression score BRCA", "setting": "[3]; BRCA tumors vs panel of normal tissues", "result": "++"}, {"measurement": "Expression score CRC", "setting": "[3]; colorectal cancer (N = 20) vs panel of normal tissues", "result": "+"}, {"measurement": "Expression score OSCAR", "setting": "[3]", "result": "+++"}, {"measurement": "Expression score GBC_CCC", "setting": "[3]; gallbladder adenocarcinoma and cholangiocarcinoma (N = 3) vs panel of normal tissues", "result": "++"}, {"measurement": "Expression score GC", "setting": "[3]; gastric cancer (N = 11) vs panel of normal tissues", "result": "+"}, {"measurement": "Expression score NSCLC", "setting": "[3]; non-small cell lung cancer (N = 11) vs panel of normal tissues", "result": "+++"}, {"measurement": "Expression score OC", "setting": "[3]", "result": "++"}, {"measurement": "Expression score PC", "setting": "[3]; pancreatic cancer (N = 26) vs panel of normal tissues", "result": "+"}, {"measurement": "Expression score PCA", "setting": "[3]; prostate cancer and benign prostate hyperplasia (N = 5) vs panel of normal tissues", "result": "+"}, {"measurement": "Expression score SCLC", "setting": "[3]", "result": "++"}, {"measurement": "Expression score UBC", "setting": "[3]", "result": "++"}, {"measurement": "Expression score UEC", "setting": "[3]; uterine cancer (N = 10) vs panel of normal tissues", "result": "+++"}]}]}
